{
  "source": "the supplement of paper PMC5770031",
  "note": "“And” between values parts separate entries of the source, which are not always exact repeats. Identical values can stand only once. Some of the results follow. Single values are uncertain here, since repeats match poorly.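 ATM8/balancer (normal ATM) heterozygous flies were crossed on treated food; parents laid eggs 5–6 days, offspring developed ~12 days, so parents and larvae ingested compound. Readout: fraction of emerged adults homozygous for ATM8 versus 2% DMSO controls. Compounds were neutral at 10–20% homozygotes, harmful below 10%, helpful above 20%.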",
  "data": [
    {"tested_on": "Drosophila melanogaster ATM8 (temperature-sensitive ATM allele)", "assay": "fraction of eclosed F1 progeny that are homozygous ATM8 (rescue of developmental lethality); higher = more rescue of ATM8 developmental lethality; extreme values may be limits of the assay", "conditions": "compound concentration applied to food 0.2 mM; 21 °C", "values": [
      {"compound": "CCCN(CCC)CCc1cccc2c1CC(=O)N2", "fraction of eclosed F1 progeny that are homozygous ATM8": 0.196},
      {"compound": "O[C@H]1[C@H](O)[C@@H](O)[C@H](O)[C@@H](O)[C@H]1O", "fraction of eclosed F1 progeny that are homozygous ATM8": 0.108},
      {"compound": "COc1ccc2c(c1)CC[C@@H]1[C@@H]2CC[C@]2(C)[C@@H](O)CC[C@@H]12", "fraction of eclosed F1 progeny that are homozygous ATM8": 0.087},
      {"compound": "COc1cccc2c1C(=O)c1c(O)c3c(c(O)c1C2=O)C[C@@](O)(C(=O)CO)C[C@@H]3O[C@H]1C[C@H](N)[C@@H](O)[C@H](C)O1", "fraction of eclosed F1 progeny that are homozygous ATM8": 0.0649},
      {"compound": "CC(=O)O[C@H]1C(=O)[C@@]2(C)[C@H]([C@H](OC(=O)c3ccccc3)[C@]3(O)C[C@H](OC(=O)[C@H](O)[C@@H](NC(=O)c4ccccc4)c4ccccc4)C(C)=C1C3(C)C)[C@]1(OC(C)=O)CO[C@@H]1C[C@@H]2O", "fraction of eclosed F1 progeny that are homozygous ATM8": 0.0667},
      {"compound": "CNNC", "fraction of eclosed F1 progeny that are homozygous ATM8": 0.181},
      {"compound": "CC(=O)c1ccc[nH]1", "fraction of eclosed F1 progeny that are homozygous ATM8": 0.22},
      {"compound": "NC(=O)c1cnccn1", "fraction of eclosed F1 progeny that are homozygous ATM8": 0.1},
      {"compound": "CC(C)(C)CC(C)(C)c1cc(Cc2cc(C(C)(C)CC(C)(C)C)cc(-n3nc4ccccc4n3)c2O)c(O)c(-n2nc3ccccc3n2)c1", "fraction of eclosed F1 progeny that are homozygous ATM8": 0.13},
      {"compound": "CSc1nc2cc(Cl)c(Oc3cccc(Cl)c3Cl)cc2[nH]1", "fraction of eclosed F1 progeny that are homozygous ATM8": 0.231},
      {"compound": "Cc1nc2ccccn2c(=O)c1CCN1CCC(C(=O)c2ccc(F)cc2)CC1", "fraction of eclosed F1 progeny that are homozygous ATM8": 0.0469},
      {"compound": "O=C(CCNNC(=O)c1ccncc1)NCc1ccccc1", "fraction of eclosed F1 progeny that are homozygous ATM8": 0.167},
      {"compound": "CCCn1c(=O)c2[nH]c(C3CCCC3)nc2n(CCC)c1=O", "fraction of eclosed F1 progeny that are homozygous ATM8": 0.0294},
      {"compound": "O=C(/C=C/c1ccccc1)c1ccc(O[C@@H]2O[C@H](CO)[C@@H](O)[C@H](O)[C@H]2O)cc1O", "fraction of eclosed F1 progeny that are homozygous ATM8": 0.0976},
      {"compound": "CC1/C(=N/O)C[C@@H]2C[C@H]1C2(C)C", "note": "(stereo partly drawn)", "fraction of eclosed F1 progeny that are homozygous ATM8": 0.0606},
      {"compound": "O=C(O)c1cc(=O)[nH]c(=O)[nH]1", "fraction of eclosed F1 progeny that are homozygous ATM8": 0.143},
      {"compound": "O=c1n(CCCN2CCN(c3cccc(Cl)c3)CC2)nc2ccccn12", "fraction of eclosed F1 progeny that are homozygous ATM8": 0.0698},
      {"compound": "CC(=O)NCCCCCC(=O)O", "fraction of eclosed F1 progeny that are homozygous ATM8": 0.0833},
      {"compound": "COc1ccc2c(c1)[C@]13CCCC[C@@H]1[C@H](C2)N(C)CC3", "fraction of eclosed F1 progeny that are homozygous ATM8": 0.0667},
      {"compound": "COc1ccc([C@@H](C)C(=O)c2ccc(O)cc2O)cc1", "fraction of eclosed F1 progeny that are homozygous ATM8": 0.304},
      {"compound": "C=C[C@H]1CN2CC[C@H]1C[C@H]2[C@H](O)c1ccnc2ccccc12", "fraction of eclosed F1 progeny that are homozygous ATM8": 0.0612},
      {"compound": "C/C=C(/C(=C/C)c1ccc(O)cc1)c1ccc(O)cc1", "fraction of eclosed F1 progeny that are homozygous ATM8": 0.0312},
      {"compound": "O=C(O)c1ccccc1OP(=O)(O)O", "fraction of eclosed F1 progeny that are homozygous ATM8": 0.0784},
      {"compound": "COC(=O)c1c(C)cc(OC(=O)c2c(C)cc(O)c(C=O)c2O)c(C)c1O", "fraction of eclosed F1 progeny that are homozygous ATM8": 0.289},
      {"compound": "C[C@H]1O[C@@H](O[C@H]2[C@@H](O)C[C@H](O[C@H]3[C@@H](O)C[C@H](O[C@H]4CC[C@@]5(C)[C@H](CC[C@@H]6[C@@H]5CC[C@]5(C)[C@@H](C7=CC(=O)OC7)[C@@H](O)C[C@]65O)C4)O[C@@H]3C)O[C@@H]2C)C[C@H](O)[C@@H]1O", "fraction of eclosed F1 progeny that are homozygous ATM8": 0.387},
      {"compound": "CC1=C(/C=C/C(C)=C/C=C/C(C)=C/CO)C(C)(C)CCC1", "fraction of eclosed F1 progeny that are homozygous ATM8": 0.22},
      {"compound": "C[C@]12CCC(=O)C=C1[C@@H]1C[C@@H]1[C@H]1[C@@H]3[C@@H]4C[C@@H]4[C@@]4(CCC(=O)O4)[C@@]3(C)CC[C@@H]12", "fraction of eclosed F1 progeny that are homozygous ATM8": 0.104},
      {"compound": "CC1=NCCc2c1[nH]c1cc(O)ccc21", "fraction of eclosed F1 progeny that are homozygous ATM8": "0.25 and 0.18"},
      {"compound": "C/C(=C\\C(=O)OCCCCCCCCC(=O)O)C[C@@H]1OC[C@H](C[C@@H]2O[C@H]2[C@@H](C)[C@H](C)O)[C@@H](O)[C@H]1O", "fraction of eclosed F1 progeny that are homozygous ATM8": 0.0294},
      {"compound": "CN/C(=N\\CCSCc1nc[nH]c1C)NC#N", "fraction of eclosed F1 progeny that are homozygous ATM8": 0.167},
      {"compound": "N[C@@H](CSCSC[C@H](N)C(=O)O)C(=O)O", "fraction of eclosed F1 progeny that are homozygous ATM8": 0.0217},
      {"compound": "O=C(O)c1cc(/N=N/c2ccc(S(=O)(=O)Nc3ccccn3)cc2)ccc1O", "fraction of eclosed F1 progeny that are homozygous ATM8": 0.0465},
      {"compound": "CCOc1ccc2nc(S(N)(=O)=O)sc2c1", "fraction of eclosed F1 progeny that are homozygous ATM8": 0.0303},
      {"compound": "c1coc(CNc2ncnc3[nH]cnc23)c1", "fraction of eclosed F1 progeny that are homozygous ATM8": 0.244},
      {"compound": "C[C@@H]1C[C@H]2[C@@H]3CCC4=CC(=O)C=C[C@]4(C)[C@@]3(Cl)[C@@H](O)C[C@]2(C)[C@@]1(OC(=O)c1ccco1)C(=O)CCl", "fraction of eclosed F1 progeny that are homozygous ATM8": 0.333},
      {"compound": "O=C(O)c1ccccc1O", "fraction of eclosed F1 progeny that are homozygous ATM8": 0.0833},
      {"compound": "CC(=O)Oc1cc(-c2coc3cc(OC(C)=O)c(OC(C)=O)c(OC(C)=O)c3c2=O)cc(OC(C)=O)c1OC(C)=O", "fraction of eclosed F1 progeny that are homozygous ATM8": 0.117},
      {"compound": "CC1/C=C/C=C/C=C/C=C/C=C/C=C/C=C/C(OC2O[C@H](C)[C@@H](O)[C@H](N)[C@@H]2O)CC(O)C(C(=O)O)C(O)CC(=O)CC(O)CC(O)CC(O)CC(=O)CCCC(=O)CC(=O)OC1C(C)CC(C)C(O)CC(=O)c1ccc(N)cc1", "note": "(stereo partly drawn)", "fraction of eclosed F1 progeny that are homozygous ATM8": 0.293},
      {"compound": "O=c1oc2cc(O)ccc2s1", "fraction of eclosed F1 progeny that are homozygous ATM8": 0.0769},
      {"compound": "O=C1c2ccccc2C(=O)C1c1ccc(Br)cc1", "fraction of eclosed F1 progeny that are homozygous ATM8": 0.0417},
      {"compound": "COc1cc(OC)c2c(c1)O[C@H](c1ccc(OC)c(OC)c1)[C@@H](O)C2", "fraction of eclosed F1 progeny that are homozygous ATM8": 0.0353},
      {"compound": "CC=CC1=C(C(=O)O)N2C(=O)[C@@H](NC(=O)[C@H](N)c3ccc(O)cc3)[C@H]2SC1", "fraction of eclosed F1 progeny that are homozygous ATM8": 0.203},
      {"compound": "C=CC[C@]1(O)CC[C@H]2[C@@H]3CCC4=CC(=O)CCC4=C3C=C[C@@]21C", "fraction of eclosed F1 progeny that are homozygous ATM8": 0.08},
      {"compound": "CCOC(=S)SSC(=S)OCC", "fraction of eclosed F1 progeny that are homozygous ATM8": 0.145},
      {"compound": "CC1(C)C(O[C@@H]2OC[C@@H](O)[C@H](O)[C@H]2O)CC[C@]23CC24CC[C@]2(C)[C@@H]([C@@]5(C)CC[C@@H](C(C)(C)O)O5)[C@H](O)C[C@@]2(C)C4C[C@@H](O[C@@H]2O[C@H](CO)[C@@H](O)[C@H](O)[C@H]2O)C13", "note": "(stereo partly drawn)", "fraction of eclosed F1 progeny that are homozygous ATM8": 0.182},
      {"compound": "Cc1cc2c(s1)Nc1ccccc1N=C2N1CCN(C)CC1", "fraction of eclosed F1 progeny that are homozygous ATM8": 0},
      {"compound": "CC(C)OC(=O)C(C)(C)Oc1ccc(C(=O)c2ccc(Cl)cc2)cc1", "fraction of eclosed F1 progeny that are homozygous ATM8": 0.0667},
      {"compound": "OC[C@@H]1CCCN2CCCC[C@H]12", "fraction of eclosed F1 progeny that are homozygous ATM8": 0.128},
      {"compound": "C[C@H]1[C@H](C)CC[C@]2(C(=O)O[C@@H]3O[C@H](CO[C@@H]4O[C@H](CO)[C@@H](O[C@@H]5O[C@H](C)[C@H](O)[C@@H](O)[C@H]5O)[C@H](O)[C@H]4O)[C@@H](O)[C@H](O)[C@H]3O)CC[C@]3(C)C(=CC[C@@H]4[C@@]5(C)C[C@@H](O)[C@H](O)[C@@](C)(CO)[C@@H]5CC[C@]43C)[C@H]12", "fraction of eclosed F1 progeny that are homozygous ATM8": 0.1},
      {"compound": "C1CCc2nnnn2CC1", "fraction of eclosed F1 progeny that are homozygous ATM8": 0.197},
      {"compound": "N#CCC(=O)NN", "fraction of eclosed F1 progeny that are homozygous ATM8": 0.125},
      {"compound": "CN1CCCN=C1/C=C/c1cccc(O)c1", "fraction of eclosed F1 progeny that are homozygous ATM8": 0.163},
      {"compound": "CC(N)CCCC(C)(C)O", "note": "(stereo not drawn)", "fraction of eclosed F1 progeny that are homozygous ATM8": 0.116},
      {"compound": "Cc1cc(O)cc(C)c1Cl", "fraction of eclosed F1 progeny that are homozygous ATM8": 0.05},
      {"compound": "CC(=O)N(c1onc(C)c1C)S(=O)(=O)c1ccc(N)cc1", "fraction of eclosed F1 progeny that are homozygous ATM8": 0.0263},
      {"compound": "CC(Cc1ccc(O)cc1)NCC(O)c1cc(O)cc(O)c1", "note": "(stereo not drawn)", "fraction of eclosed F1 progeny that are homozygous ATM8": 0.125},
      {"compound": "Oc1cccc(O)c1", "fraction of eclosed F1 progeny that are homozygous ATM8": 0.158},
      {"compound": "C=C[C@H]1CN2CC[C@H]1C[C@@H]2[C@@H](O)c1ccnc2ccccc12", "fraction of eclosed F1 progeny that are homozygous ATM8": 0}
    ]}
  ]
}
